For 69 sequences, median seed-adjusted z-score results are on record in PubChem BioAssay AID1347426 (Functional Genomics Laboratory (NCATS/FGL), 2020).

In all, about 31,000 sequences went through this assay and about 1,400 (4.5%) were called active.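 Rule for the calls: active = median seed-adjusted z-score above 1 or below -1; inactive = the rest.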 This is one part of the list.

The nature of this experiment: Novel Modifiers of Survival Motor Neuron (SMN) Protein: Gene Identification via Genome-wide siRNA Screen.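 Note: luminescence tracks full-length SMN protein made from the SMN2 reporter.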 The settings on record: HEK293T SMN2-luciferase reporter, siRNA knockdown, 72 h; actives lie on both sides. The procedure, abridged: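 Steps: spot 1 pmol siRNA, add Lipofectamine RNAiMax in serum-free DMEM, seed HEK293T SMN2–luciferase reporter cells; incubate 72 h at 37 °C; add ONE-Glo; normalize luminescence to control siRNA, log10, MAD. Candidates: |MAD| > 1.0.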
For orientation: Reporter assays use an easily measured gene product as a stand-in for the process of interest.
Turning to CCACCACGGAUAUCAAAGATT against WDTC1, the median seed-adjusted z-score is inactive: -0.412.

On to CUGAUGUGGUCUCACCUAATT against C3AR1, for which the median seed-adjusted z-score is inactive: -0.916.

Regarding CCUCAUACAUCUAAAUUUATT against ANP32D, the median seed-adjusted z-score was inactive: -0.714.

GGAUUGUUUGGAACCAGUUTT against NUP98: the median seed-adjusted z-score was inactive: 0.168.

As for GCGAAGAGCUGACCAAAUATT against NOD1, the median seed-adjusted z-score was inactive: 0.092.

For GGAGAUACCUGGUCUCUUUTT against ADAM21, the median seed-adjusted z-score was inactive: 0.

Turning to GUCUGGAACUUCAAGAUGATT against UPB1, the median seed-adjusted z-score was inactive: -0.0341.

In the case of GCCCAGGUGAGGUAUCUGATT against PNMA2, the median seed-adjusted z-score was inactive: 0.629.

GCUUUAGCGAAAGACCUAATT against RPS6KA5: the median seed-adjusted z-score was inactive: -0.0588.

On to CGAUAUGGAUUUACGGCUUTT against ABCG2, for which the median seed-adjusted z-score was inactive: 0.

For UGUGGAACCUGUCAUCCUATT against ARVCF, the median seed-adjusted z-score was inactive: 0.372.

On to GCUAAGAUGCGUUUUCACATT against GFRA3, for which the median seed-adjusted z-score is inactive: -0.326.

Turning to GGGUAAAUCACAUCGUUAATT against REV1, the median seed-adjusted z-score is inactive: -0.294.

As to GAACAUAUCAAGACCGGUUTT against MED30, the median seed-adjusted z-score was active: -2.06.

Turning to CCUUUCCGAUCAUCACGAATT against KNG1, the median seed-adjusted z-score is inactive: 0.

Regarding CGUGGACUCCCACUUCCAATT against OGG1, the median seed-adjusted z-score was inactive: -0.128.

Take GGAUAACAUUUGCUCCAUUTT against GNB1: the median seed-adjusted z-score was inactive: -0.166.

As to CCCUUACCCAAAACGAGAATT against CDK8, the median seed-adjusted z-score was active: -1.47.

Consider GGACUUGUAUAUGAGUAUATT against CCT6A, for which the median seed-adjusted z-score is inactive: -0.286.

For the sequence CAAAGUCGGAUAUAAAGUATT against ZNF645, the median seed-adjusted z-score is inactive: 0.079.

Consider GGUUCAUCAGUAAUCCUAATT against DNM1L, for which the median seed-adjusted z-score was inactive: -0.153.

On to CCUCUGAUCUCACGCACUATT against ATP2B4, for which the median seed-adjusted z-score is inactive: 0.

On to GACCCUUACUGGACAGACATT against C1QTNF2, for which the median seed-adjusted z-score was inactive: 0.0697.

Turning to UCAUGAAUAUCGUAGAUGATT against ADAMTS14, the median seed-adjusted z-score is inactive: 0.209.

As for AGCUUUCAGAUAUUACCAATT against ZNF709, the median seed-adjusted z-score was inactive: 0.0129.

As for AGUGGAAACUUUUGUCGGATT against SOX2, the median seed-adjusted z-score is inactive: 0.0559.

In the case of AGACAGAGCCGAGAACCUATT against POFUT2, the median seed-adjusted z-score was inactive: -0.86.

As for CGGAUUAUCUUCUAUCUAUTT against SLC6A14, the median seed-adjusted z-score was inactive: 0.

As for CAACCAAAGUCGAAUAUGATT against PLK1, the median seed-adjusted z-score is active: -2.57.

As for CGGCAACGGAAGAAGAUGATT against PPP1R1A, the median seed-adjusted z-score was inactive: -0.529.

As for GACUGGUUUUCGGAGCAAATT against ACR, the median seed-adjusted z-score was inactive: -0.655.

As to GAAGGUUUACAAGGACUUATT against KLK7, the median seed-adjusted z-score is inactive: 0.

For CCAACCAUGUGGUCACUCUTT against RXFP4, the median seed-adjusted z-score is inactive: -0.315.

On to CUAUAUUGCAAUAUCCAAATT against COL21A1, for which the median seed-adjusted z-score is inactive: 0.296.

On to GAACUGAUGAUUACUUAGATT against GDI2, for which the median seed-adjusted z-score is inactive: -0.161.

As to GCAGAUAAGUGAACGAGAUTT against SAMHD1, the median seed-adjusted z-score is active: -1.33.

As for GCAUGGAUCAUGAUAGACATT against LARS, the median seed-adjusted z-score is inactive: -0.788.

GGGACGAGAUGGUAAAGAATT against ATP2B2: the median seed-adjusted z-score is active: 1.37.

Consider CCUGGGUCGUUAGAGGACATT against MMP25, for which the median seed-adjusted z-score is inactive: 0.

As to CCAUGCUGGAGAUCAAGAATT against PRKAG3, the median seed-adjusted z-score was active: -1.03.

As for GCAUUACGGAAGAAGCUUATT against IPMK, the median seed-adjusted z-score was inactive: -0.00138.

On to GAACCUCAGUGUCCGUGUATT against TRIP10, for which the median seed-adjusted z-score was inactive: -0.261.

GGAAUGCGCUAUAAACGAATT against INPP5F: the median seed-adjusted z-score is inactive: 0.118.

Regarding GAAUGGGACAGAGACCAAATT against NSUN6, the median seed-adjusted z-score is inactive: 0.428.

Turning to GUUGGAUCUUUAUCUGAUATT against ANAPC7, the median seed-adjusted z-score was inactive: -0.263.

Take ACCGUUCCCUGUGGACACATT against TRIM15: the median seed-adjusted z-score is inactive: 0.292.

For the sequence GAGGAUAUCCCAUAUUUUATT against SERGEF, the median seed-adjusted z-score is inactive: -0.308.

For GGCUAGUACUGACAGAUGATT against CREB3, the median seed-adjusted z-score was inactive: 0.0509.

With GCGUAUUCCUGGGUUCAGATT against NR1D2, the median seed-adjusted z-score is inactive: 0.0523.

For CGGACAUUCGUGCAAAGAATT against PRPF6, the median seed-adjusted z-score is active: -1.06.

For GGAACUUCCUGAGAACAUUTT against MAP3K8, the median seed-adjusted z-score is inactive: -0.533.

For GAAACUGUCACAUACCAGATT against USP45, the median seed-adjusted z-score was inactive: -0.203.

GGACAGUCAUUGUAACUAUTT against GPR19: the median seed-adjusted z-score was inactive: 0.157.

As to CCUGAACGAUAAGAAGUCATT against GABRB2, the median seed-adjusted z-score was inactive: 0.288.

As to CCUUCGAGCUUGAUGGUUUTT against CYP26B1, the median seed-adjusted z-score was inactive: -0.213.

With AGAGGUCCUUCAAAACAGATT against ENTPD6, the median seed-adjusted z-score is inactive: 0.438.

Regarding UCCCGGGAAUUAAAACUUATT against EPHA6, the median seed-adjusted z-score is inactive: 0.0445.

On to GCAAGAUUGUCGCAAAUUUTT against ARPC1A, for which the median seed-adjusted z-score is inactive: -0.433.

Consider CCAUUGUCACGGGCUUGUATT against ENPP3, for which the median seed-adjusted z-score was inactive: 0.66.

Turning to CGACAAUUAUGAUGCAGAATT against ADPRHL1, the median seed-adjusted z-score was inactive: 0.

Turning to GGUAUACACUGAAUAUCCUTT against LCP1, the median seed-adjusted z-score is inactive: -0.386.

Regarding CACUUGAGGAGUUACUGAATT against TADA3L, the median seed-adjusted z-score was inactive: 0.00625.

In the case of GCUGUACACCGGCAUCGUATT against SLC5A5, the median seed-adjusted z-score was active: 1.01.

With CAGUUUAUCUCAGACAUCUTT against CD9, the median seed-adjusted z-score is active: -1.02.

Consider GGACAGAGUUAGAGAUUGATT against PARP9, for which the median seed-adjusted z-score is inactive: -0.526.

With CAAGAAUGUUACUAACAAUTT against TPM4, the median seed-adjusted z-score is inactive: -0.407.

On to CAGCAAUUCGUGGAGCUCATT against STX4, for which the median seed-adjusted z-score was inactive: 0.759.

Consider ACGUGGAGCUCUUAGACAATT against AP1S1, for which the median seed-adjusted z-score is active: -1.04.

Regarding CGGCCGAGUUUGUCCCUUATT against MPP2, the median seed-adjusted z-score was inactive: 0.0496.
